{"source": "paper PMC5286426", "about": "“The Calcium-Dependent Switch Helix of L-Plastin Regulates Actin Bundling” (Scientific Reports, 2017)", "target": "T1, L-plastin ABD2 (residues 384-627) (human) (UniProt P13796)", "T1 sequence": "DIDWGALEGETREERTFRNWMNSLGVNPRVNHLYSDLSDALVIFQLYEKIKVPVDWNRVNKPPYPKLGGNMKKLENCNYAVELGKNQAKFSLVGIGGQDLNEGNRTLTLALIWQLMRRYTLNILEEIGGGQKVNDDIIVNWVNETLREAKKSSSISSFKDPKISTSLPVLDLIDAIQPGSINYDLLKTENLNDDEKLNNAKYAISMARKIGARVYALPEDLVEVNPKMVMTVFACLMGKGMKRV", "test": "NMR titration; synthetic H5 peptide titrated into 15N-labelled ABD2 (residues 384-627); 1H,15N HSQC; both purified", "note": "No constants are given. Whether binding was seen depends on the method and setting.", "data": [{"binder": "STDVAKTFRKAINKKEGI (N-terminal acetyl (Ac-); C-terminal amide (-NH2))", "note": "[synthetic H5 peptide representing the H5 region of LPL (residues 83-100)]", "values": [{"measurement": "binding", "result": "no binding"}]}]}
